# From patent US20260199458A1 (INCENDIA THERAPEUTICS, published 2026)
# No constants are given. Whether binding was seen depends on the method and setting. Some binding calls cover weakened binding; strength is not graded here. Tags and fused reporters may be left off the sequences shown.
# B1: 9H-1 (humanized DDR1-9, WT IgG1 Fc) (antibody, V domains shown)
# VH: QVQLVESGGRVVQPGRSLRLSCTASGFSLNRYYMLWVRQAPGKGLEWIGTISYGDTTYYASWAKGRFTISRDNSKNTLYLQMNSLRAEDTAVYYCARADTGDNGYLGLQLWGQGTLVTVSS
# VL: DIQMTQSPSSVSASVGDRVTITCQASQSIGSVLAWYQQKPGKAPKLLISGVFDLASGVPSRFSGSGSGTDFTLTISSLQPEDFATYYCQYIPYGSSPFGGGTKVEIKR
# notes: In some embodiments the heavy chain lacks the terminal lysine; also called PRTH-101; humanized DDR1-9 (9H-1)_1 WT IgG1 Fc
# Target: BT549
# Assay: flow cytometry on BT549 cells (DDR1 low/DDR2 high), percent 9H-1-binding cells at 0.1, 0.5, 1.0, 10.0 and 100.0 µg/mL 9H-1
binder,measurement,value
B1,binding,binds
